These results are taken from patent US20210380703A1.

For experiment [1], the target named is T1, His-tagged Mouse ACVR2B (mouse) (UniProt P27040).
T1 sequence (looked up): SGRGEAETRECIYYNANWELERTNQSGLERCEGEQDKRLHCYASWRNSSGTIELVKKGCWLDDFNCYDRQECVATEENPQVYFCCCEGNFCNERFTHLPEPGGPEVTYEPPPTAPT
Briefly: ELISA, coated His-tagged antigen, 10 pt.

Experiment [2] addresses T2, His-tagged Human ACVR2B (human) (UniProt Q13705).
T2 sequence (looked up): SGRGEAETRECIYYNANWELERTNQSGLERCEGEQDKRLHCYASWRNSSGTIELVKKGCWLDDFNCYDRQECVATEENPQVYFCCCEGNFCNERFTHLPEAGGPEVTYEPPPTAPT
The experiment is described as follows: ELISA, coated His-tagged antigen, 10 pt.

No constants are given. Whether binding was seen depends on the method and setting. Where a sequence is shown, tags or fusion partners need not be part of it.

B1: 374_B02 (antibody, V domains shown)
VH: EVQLLESGGGLVQPGGSLRLSCAASGFTFDSYSMHWVRQAPGKGLEWVAGINYNSGYTSYADSVKGRFTISRDNSKNTLYLQMNSLRAEDTAVYYCARAANWHDTHLDYWGQGTLVTVSS
VL: DIQMTQSPSSLSASVGDRVTITCRASQSIISYLNWYQQKPGKAPKLLIYAATSRASGVPSRFSGSGSGTDFTLTISSLQPEDFATYYCQQSYDSPLTFGGGTKVEIK
B1: the binding entry in experiment [1] and in experiment [2] was “no binding (tested: 1 uM)” each time.

B2: 373_D11 (antibody, V domains shown)
VH: EVQLLESGGGLVQPGGSLRLSCAASGFTFSSYGMHWVRQAPGKGLEWVAGINYNGGYTSYADSVKGRFTISRDNSKNTLYLQMNSLRAEDTAVYYCARAATWHDTHLDYWGQGTLVTVSS
VL: DIQMTQSPSSLSASVGDRVTITCRASQSILTYVNWYQQKPGKAPKLLIYAATSRASGVPSRFSGSGSGTDFTLTISSLQPEDFATYYCQQSYDNPLTFGGGTKVEIK
In the case of B2, the binding result in experiment [1] and in experiment [2] was “no binding (tested: 1 uM)” throughout.

B3: 371_B11 (antibody, V domains shown)
VH: EVQLLESGGGLVQPGGSLRLSCAASGFTFSSYSMHWVRQAPGKGLEWVASINYNSGYTSYADSVKGRFTISRDNSKNTLYLQMNSLRAEDTAVYYCARAATWHDTHLDYWGQGTLVTVSS
VL: DIQMTQSPSSLSASVGDRVTITCRASQSILTYLNWYQQKPGKAPKLLIYAATSRASGVPSRFSGSGSGTDFTLTISSLQPEDFATYYCQQSYELPLTFGGGTKVEIK
In the case of B3, the binding entry in experiment [1] and in experiment [2] was “no binding (tested: 1 uM)” throughout.

B4: 375_A04 (antibody, V domains shown)
VH: EVQLLESGGGLVQPGGSLRLSCAASGFTFDSYGMNWVRQAPGKGLEWVAGINYNGGYKSYADSVKGRFTISRDNSKNTLYLQMNSLRAEDTAVYYCARAANWHDTALDYWGQGTLVTVSS
VL: DIQMTQSPSSLSASVGDRVTITCRASQSILTYLNWYQQKPGKAPKLVIYYVNNLPSGVPSRFSGSGSGTDFTLTISSLQPEDFATYYCQQSYNSPLTFGGGTKVEIK
B4: the binding result in experiment [1] and in experiment [2] was “no binding (tested: 1 uM)” in each case.

B5: 365_F02 (antibody, V domains shown)
VH: EVQLLESGGGLVQPGGSLRLSCAASGFTFSSYSMNWVRQAPGKGLEWVSGINYNGGYKGYADSVKGRFTISRDNSKNTLYLQMNSLRAEDTAVYYCARGANWHDTHLDYWGQGTLVTVSS
VL: DIQMTQSPSSLSASVGDRVTITCRASQSILTYVNWYQQKPGKAPKLLIYAATSRHSGVPSRFSGSGSGTDFTLTISSLQPEDFATYYCQQSYDTPLTFGGGTKVEIK
On to B5, for which the binding result in experiment [1] and in experiment [2] was “no binding (tested: 1 uM)” throughout.

B6: 369_A12 (antibody, V domains shown)
VH: EVQLLESGGGLVQPGGSLRLSCAASGFTFSSYSMHWVRQAPGKGLEWVASINYNSGYTGYADSVKGRFTISRDNSKNTLYLQMNSLRAEDTAVYYCARAATWHDTHLDYWGQGTLVTVSS
VL: DIQMTQSPSSLSASVGDRVTITCRASQSILTYLNWYQQKPGKAPKLLIYAATSRHSGVPSRFSGSGSGTDFTLTISSLQPEDFATYYCQQSYDLPLTFGGGTKVEIK
In the case of B6, the binding result in experiment [1] and in experiment [2] was “no binding (tested: 1 uM)” each time.

B7: 371_C02 (antibody, V domains shown)
VH: EVQLLESGGGLVQPGGSLRLSCAASGFTFDSYGMHWVRQAPGKGLEWVAGINYNSGYTGYADSVKGRFTISRDNSKNTLYLQMNSLRAEDTAVYYCARAATWHDTHLDYWGQGTLVTVSS
VL: DIQMTQSPSSLSASVGDRVTITCRASQSILTYVNWYQQKPGKAPKLLIYAASSLQSGVPSRFSGSGSGTDFTLTISSLQPEDFATYYCQQSYDTPLTFGGGTKVEIK
B7: the binding entry in experiment [1] and in experiment [2] was “no binding (tested: 1 uM)” in each case.

B8: 367_F10 (antibody, V domains shown)
VH: EVQLLESGGGLVQPGGSLRLSCAASGFTFDSYGMNWVRQAPGKGLEWVSGINYNSGYTSYADSVKGRFTISRDNSKNTLYLQMNSLRAEDTAVYYCARAATWHDTHLDYWGQGTLVTVSS
VL: DIQMTQSPSSLSASVGDRVTITCRASQSILTYLNWYQQKPGKAPKLLIYAATSRASGVPSRFSGSGSGTDFTLTISSLQPEDFATYYCQQSYDTPLTFGGGTKVEIK
With B8, the binding entry in experiment [1] and in experiment [2] was “no binding (tested: 1 uM)” throughout.

B9: 375_A11 (antibody, V domains shown)
VH: EVQLLESGGGLVQPGGSLRLSCAASGFTFSDYGMHWVRQAPGKGLEWVSSINYNSGYKSYADSVKGRFTISRDNSKNTLYLQMNSLRAEDTAVYYCARAANWHDTALDYWGQGTLVTVSS
VL: DIQMTQSPSSLSASVGDRVTITCRASQSIVSYLNWYQQKPGKAPKLLIYYVTNLASGVPSRFSGSGSGTDFTLTISSLQPEDFATYYCQQSYDNPLTFGGGTKVEIK
On to B9, for which the binding result in experiment [1] and in experiment [2] was “no binding (tested: 1 uM)” throughout.

B10: 376_D08 (antibody, V domains shown)
VH: EVQLLESGGGLVQPGGSLRLSCAASGFTFDSYGMNWVRQAPGKGLEWVANINYNSGYKSYADSVKGRFTISRDNSKNTLYLQMNSLRAEDTAVYYCARAATWHDTALDYWGQGTLVTVSS
VL: DIQMTQSPSSLSASVGDRVTITCRASQSILTYLNWYQQKPGKAPKLVIYYANNRPSGVPSRFSGSGSGTDFTLTISSLQPEDFATYYCQQSYSNPLTFGGGTKVEIK
Consider B10, for which the binding entry in experiment [1] and in experiment [2] was “no binding (tested: 1 uM)” in each case.

B11: 365_G06 (antibody, V domains shown)
VH: EVQLLESGGGLVQPGGSLRLSCAASGFTFDSYGMHWVRQAPGKGLEWVAGINYNGGYTSYADSVKGRFTISRDNSKNTLYLQMNSLRAEDTAVYYCARAATWHDTHLDYWGQGTLVTVSS
VL: DIQMTQSPSSLSASVGDRVTITCRASQSILSYLNWYQQKPGKAPKLLIYAATSLASGVPSRFSGSGSGTDFTLTISSLQPEDFATYYCQQSDSTPLTFGGGTKVEIK
With B11, the binding result in experiment [1] and in experiment [2] was “no binding (tested: 1 uM)” in each case.

B12: 376_F09 (antibody, V domains shown)
VH: EVQLLESGGGLVQPGGSLRLSCAASGFTFDSYSMHWVRQAPGKGLEWVSSINYNGGYKSYADSVKGRFTISRDNSKNTLYLQMNSLRAEDTAVYYCARAATWHDTHLDYWGQGTLVTVSS
VL: DIQMTQSPSSLSASVGDRVTITCRASQSILTYVNWYQQKPGKAPKLLIYAVTSRASGVPSRFSGSGSGTDFTLTISSLQPEDFATYYCQQSYDTPLTFGGGTKVEIK
As to B12, the binding entry in experiment [1] and in experiment [2] was “no binding (tested: 1 uM)” in each case.

B13: 373_G06 (antibody, V domains shown)
VH: EVQLLESGGGLVQPGGSLRLSCAASGFTFSSYGMHWVRQAPGKGLEWVASINYNSGYTGYADSVKGRFTISRDNSKNTLYLQMNSLRAEDTAVYYCARAATWHDTHLDYWGQGTLVTVSS
VL: DIQMTQSPSSLSASVGDRVTITCRASQSILSYVNWYQQKPGKAPKLLIYAATSLASGVPSRFSGSGSGTDFTLTISSLQPEDFATYYCQQSYNLPLTFGGGTKVEIK
With B13, the binding entry in experiment [1] and in experiment [2] was “no binding (tested: 1 uM)” in each case.

B14: 367_C07 (antibody, V domains shown)
VH: EVQLLESGGGLVQPGGSLRLSCAASGFTFSSYSMNWVRQAPGKGLEWVSSINYNSGYTGYADSVKGRFTISRDNSKNTLYLQMNSLRAEDTAVYYCARGANWHDTHLDYWGQGTLVTVSS
VL: DIQMTQSPSSLSASVGDRVTITCRASQSILTYVNWYQQKPGKAPKLLIYAATSRASGVPSRFSGSGSGTDFTLTISSLQPEDFATYYCQQSYNLPLTFGGGTKVEIK
As for B14, the binding entry in experiment [1] and in experiment [2] was “no binding (tested: 1 uM)” throughout.

B15: 370_B06 (antibody, V domains shown)
VH: EVQLLESGGGLVQPGGSLRLSCAASGFTFSSYGMHWVRQAPGKGLEWVAGINYNGGYTSYADSVKGRFTISRDNSKNTLYLQMNSLRAEDTAVYYCARAATWHDTHLDYWGQGTLVTVSS
VL: DIQMTQSPSSLSASVGDRVTITCRASQSIVSYVNWYQQKPGKAPKLVIYAATSRASGVPSRFSGSGSGTDFTLTISSLQPEDFATYYCQQSYETPLTFGGGTKVEIK
Consider B15, for which the binding entry in experiment [1] and in experiment [2] was “no binding (tested: 1 uM)” each time.

B16: 376_G02 (antibody, V domains shown)
VH: EVQLLESGGGLVQPGGSLRLSCAASGFTFSDYGMNWVRQAPGKGLEWVSGINYNGGYTSYADSVKGRFTISRDNSKNTLYLQMNSLRAEDTAVYYCARAANWHDTALDYWGQGTLVTVSS
VL: DIQMTQSPSSLSASVGDRVTITCRASQSISRYLNWYQQKPGKAPKLVIYAATSLASGVPSRFSGSGSGTDFTLTISSLQPEDFATYYCQQSYDNPLTFGGGTKVEIK
Regarding B16, the binding entry in experiment [1] and in experiment [2] was “no binding (tested: 1 uM)” throughout.

B17: 368_B12 (antibody, V domains shown)
VH: EVQLLESGGGLVQPGGSLRLSCAASGFTFDSYGMHWVRQAPGKGLEWVSGINYNSGYTSYADSVKGRFTISRDNSKNTLYLQMNSLRAEDTAVYYCARAATWHDTHLDYWGQGTLVTVSS
VL: DIQMTQSPSSLSASVGDRVTITCRASQSIVSYVNWYQQKPGKAPKLLIYAATSRASGVPSRFSGSGSGTDFTLTISSLQPEDFATYYCQQSYDLPLTFGGGTKVEIK
As to B17, the binding result in experiment [1] and in experiment [2] was “no binding (tested: 1 uM)” each time.
